Data as given in PMC4145801.
No constants are given. Whether binding was seen depends on the method and setting. In cells and extracts the contact can be indirect. Some entries that bind do so weakly or less than the wild type.

Key:
[1] = target: centromeric protein A (CENP-A), centromeric histone H3 variant (human (endogenous in HeLa)) (UniProt P49450); experiment: co-IP; chromatin from non-synchronized HeLa cells after 2 min MNase digestion (long arrays rich in tri-, tetra- and penta-nucleosomes), extracted overnight at 4°C in low-salt buffer (0.5x PBS, 5 mM EGTA); IP with antibody against CENP-A, CENP-C or RNAPII^S2P and protein A/G Plus agarose beads; partners detected on Western blots; mock IP without antibody as control
[2] = target: inner kinetochore protein CENP-C (human (endogenous in HeLa)) (UniProt Q03188); experiment: as above

binding [1]: binds | binding [2]: binds
Substance: TATA-box binding protein (TBP) (from UniProt P20226 1-339)
